# Source: the supplement of paper PMC8728848
# This is one part of the list.
# B1: LysMD3 (Homo sapiens), Q7Z3D4 (protein)
# chain: MAGRHQNRSFPLPGVQSSGQVHAFGNCSDSDILEEDAEVYELRSRGKEKVRRSTSRDRLDDIIVLTKDIQEGDTLNAIALQYCCTVADIKRVNNLISDQDFFALRSIKIPVKKFSSLTETLCPPKGRQTSRHSSVQYSSEQQEILPANDSLAYSDSAGSFLKEVDRDIEQIVKCTDNKRENLNEVVSALTAQQMRFEPDNKNTQRKDPYYGADWGIG
# Experiments:
# Assay in all cases: glycan array binding signal (z-score within array); higher = stronger binding
# Settings in all cases: glycan notation: IUPAC condensed, linker removed
# Fuc(a1-2)Gal = target: Fuc(a1-2)Gal
# How it was run: (§1)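 The Consortium for Functional Glycomics database supplied 3228 glycan arrays, of which those lacking an available protein sequence were dropped. The binding signal, a within-array Z-score, was averaged across arrays of the same protein sequence and across linkers. Negative scores can be read as non-binding.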
# Fuc(a1-2)Gal(b1-3)GalNAc = target: Fuc(a1-2)Gal(b1-3)GalNAc
# How it was run: as §1
# [1] = target: Fuc(a1-2)Gal(b1-3)GalNAc(a1-3)[Fuc(a1-2)]Gal(b1-4)Glc
# How it was run: as §1
# [2] = target: Fuc(a1-2)Gal(b1-3)GalNAc(a1-3)[Fuc(a1-2)]Gal(b1-4)GlcNAc
# How it was run: as §1
# [3] = target: Fuc(a1-2)Gal(b1-3)GalNAc(b1-3)Gal
# How it was run: as §1
# [4] = target: Fuc(a1-2)Gal(b1-3)GalNAc(b1-3)Gal(a1-4)Gal(b1-4)Glc
# How it was run: as §1
# [5] = target: Fuc(a1-2)Gal(b1-3)GalNAc(b1-4)[Neu5Ac(a2-3)]Gal(b1-4)Glc
# How it was run: as §1
# Fuc(a1-2)Gal(b1-3)GlcNAc = target: Fuc(a1-2)Gal(b1-3)GlcNAc
# How it was run: as §1
# [6] = target: Fuc(a1-2)Gal(b1-3)GlcNAc(b1-2)Man(a1-3)[Fuc(a1-2)Gal(b1-3)GlcNAc(b1-2)Man(a1-6)]Man(b1-4)GlcNAc(b1-4)GlcNAc
# How it was run: as §1
# [7] = target: Fuc(a1-2)Gal(b1-3)GlcNAc(b1-2)Man(a1-3)[Fuc(a1-2)Gal(b1-3)GlcNAc(b1-2)Man(a1-6)]Man(b1-4)GlcNAc(b1-4)[Fuc(a1-6)]GlcNAc
# How it was run: as §1
# [8] = target: Fuc(a1-2)Gal(b1-3)GlcNAc(b1-3)Gal(b1-4)Glc
# How it was run: as §1
# [9] = target: Fuc(a1-2)Gal(b1-3)GlcNAc(b1-3)GalNAc
# How it was run: as §1
# [10] = target: Fuc(a1-2)Gal(b1-3)GlcNAc(b1-3)[Fuc(a1-2)Gal(b1-3)GlcNAc(b1-6)]GalNAc
# How it was run: as §1
# [11] = target: Fuc(a1-2)Gal(b1-3)GlcNAc(b1-3)[Gal(b1-4)GlcNAc(b1-6)]Gal(b1-4)Glc
# How it was run: as §1
# [12] = target: Fuc(a1-2)Gal(b1-3)GlcNAc(b1-3)[Neu5Ac(a2-6)Gal(b1-4)GlcNAc(b1-6)]Gal(b1-4)Glc
# How it was run: as §1
# [13] = target: Fuc(a1-2)Gal(b1-3)GlcNAc6S
# How it was run: as §1
# [14] = target: Fuc(a1-2)Gal(b1-3)[Fuc(a1-4)]GlcNAc
# How it was run: as §1
# [15] = target: Fuc(a1-2)Gal(b1-3)[Fuc(a1-4)]GlcNAc(b1-2)Man(a1-3)[Fuc(a1-2)Gal(b1-3)[Fuc(a1-4)]GlcNAc(b1-2)Man(a1-3)]Man(b1-4)GlcNAc(b1-4)GlcNAc
# How it was run: as §1
# [16] = target: Fuc(a1-2)Gal(b1-3)[Fuc(a1-4)]GlcNAc(b1-2)Man(a1-3)[Fuc(a1-2)Gal(b1-3)[Fuc(a1-4)]GlcNAc(b1-2)Man(a1-6)]Man(b1-4)GlcNAc(b1-4)[Fuc(a1-6)]GlcNAc(b1-4)[Fuc(a1-6)]GlcNAc
# How it was run: as §1
# [17] = target: Fuc(a1-2)Gal(b1-3)[Fuc(a1-4)]GlcNAc(b1-3)[Fuc(a1-3)[Gal(b1-4)]GlcNAc(b1-6)]Gal(b1-4)Glc
# How it was run: as §1
# [18] = target: Fuc(a1-2)Gal(b1-3)[Fuc(a1-4)]GlcNAc(b1-3)[Gal(b1-4)GlcNAc(b1-6)]Gal(b1-4)Glc
# How it was run: as §1
# [19] = target: Fuc(a1-2)Gal(b1-4)Fuc(a1-3)]GlcNAc(b1-2)Man(a1-3)[Fuc(a1-2)Gal(b1-4)[Fuc(a1-3)]GlcNAc(b1-2)Man(a1-6)]Man(b1-4)GlcNAc(b1-4)GlcNAc
# How it was run: as §1
# Fuc(a1-2)Gal(b1-4)Glc = target: Fuc(a1-2)Gal(b1-4)Glc
# How it was run: as §1
# Fuc(a1-2)Gal(b1-4)Glc6S = target: Fuc(a1-2)Gal(b1-4)Glc6S
# How it was run: as §1
# Fuc(a1-2)Gal(b1-4)GlcNAc = target: Fuc(a1-2)Gal(b1-4)GlcNAc
# How it was run: as §1
# [20] = target: Fuc(a1-2)Gal(b1-4)GlcNAc(b1-2)Man
# How it was run: as §1
# [21] = target: Fuc(a1-2)Gal(b1-4)GlcNAc(b1-2)Man(a1-3)[Fuc(a1-2)Gal(b1-4)GlcNAc(b1-2)Man(a1-6)]Man(b1-4)GlcNAc(b1-4)GlcNAc
# How it was run: as §1
# [22] = target: Fuc(a1-2)Gal(b1-4)GlcNAc(b1-2)Man(a1-3)[Fuc(a1-2)Gal(b1-4)GlcNAc(b1-2)Man(a1-6)]Man(b1-4)GlcNAc(b1-4)[Fuc(a1-6)]GlcNAc
# How it was run: as §1
# [23] = target: Fuc(a1-2)Gal(b1-4)GlcNAc(b1-2)[Fuc(a1-2)Gal(b1-4)GlcNAc(b1-4)]Man(a1-3)[Fuc(a1-2)Gal(b1-4)GlcNAc(b1-2)Man(a1-6)]Man(b1-4)GlcNAc(b1-4)GlcNAc
# How it was run: as §1
# [24] = target: Fuc(a1-2)Gal(b1-4)GlcNAc(b1-3)Gal(b1-4)GlcNAc
# How it was run: as §1
binder,measurement,setting,value
B1,glycan array binding signal (z-score),Fuc(a1-2)Gal,0.661
same,glycan array binding signal (z-score),Fuc(a1-2)Gal(b1-3)GalNAc,-0.536
same,glycan array binding signal (z-score),[1],-0.091
same,glycan array binding signal (z-score),[2],-0.867
same,glycan array binding signal (z-score),[3],-0.99
same,glycan array binding signal (z-score),[4],0.086
same,glycan array binding signal (z-score),[5],-0.144
same,glycan array binding signal (z-score),Fuc(a1-2)Gal(b1-3)GlcNAc,0.182
same,glycan array binding signal (z-score),[6],0.159
same,glycan array binding signal (z-score),[7],0.739
same,glycan array binding signal (z-score),[8],-0.119
same,glycan array binding signal (z-score),[9],0.587
same,glycan array binding signal (z-score),[10],0.08
same,glycan array binding signal (z-score),[11],-0.707
same,glycan array binding signal (z-score),[12],0.587
same,glycan array binding signal (z-score),[13],-0.457
same,glycan array binding signal (z-score),[14],0.255
same,glycan array binding signal (z-score),[15],-0.272
same,glycan array binding signal (z-score),[16],0.341
same,glycan array binding signal (z-score),[17],-0.747
same,glycan array binding signal (z-score),[18],-0.685
same,glycan array binding signal (z-score),[19],-1.11
same,glycan array binding signal (z-score),Fuc(a1-2)Gal(b1-4)Glc,0.506
same,glycan array binding signal (z-score),Fuc(a1-2)Gal(b1-4)Glc6S,-0.391
same,glycan array binding signal (z-score),Fuc(a1-2)Gal(b1-4)GlcNAc,1.02
same,glycan array binding signal (z-score),[20],-0.973
same,glycan array binding signal (z-score),[21],0.353
same,glycan array binding signal (z-score),[22],0.664
same,glycan array binding signal (z-score),[23],-0.03
same,glycan array binding signal (z-score),[24],0.791

# Rewritten as tab-separated lines: part of the list above
binder	measurement	setting	value
B1	glycan array binding signal (z-score)	[11]	-0.707
same	glycan array binding signal (z-score)	[12]	0.587
